Data: article PMC2529310

The chains behind the UniProt entries cited, without tags or fusion partners.
UniProt Q92731, whole entry: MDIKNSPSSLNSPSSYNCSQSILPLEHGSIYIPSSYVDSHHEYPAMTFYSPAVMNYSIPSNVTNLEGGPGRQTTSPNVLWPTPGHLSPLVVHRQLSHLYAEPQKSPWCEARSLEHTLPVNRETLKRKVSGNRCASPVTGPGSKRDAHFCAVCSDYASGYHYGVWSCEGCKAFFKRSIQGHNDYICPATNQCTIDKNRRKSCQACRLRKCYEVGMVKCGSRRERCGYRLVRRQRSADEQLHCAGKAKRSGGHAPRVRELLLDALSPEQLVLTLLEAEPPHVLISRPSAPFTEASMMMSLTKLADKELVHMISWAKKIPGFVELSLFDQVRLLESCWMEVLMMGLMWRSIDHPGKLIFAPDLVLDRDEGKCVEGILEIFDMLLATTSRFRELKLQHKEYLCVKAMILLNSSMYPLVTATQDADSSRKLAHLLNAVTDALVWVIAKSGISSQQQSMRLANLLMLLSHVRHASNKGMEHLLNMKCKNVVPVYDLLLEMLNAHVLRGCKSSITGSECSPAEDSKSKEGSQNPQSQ
UniProt P03372, whole entry: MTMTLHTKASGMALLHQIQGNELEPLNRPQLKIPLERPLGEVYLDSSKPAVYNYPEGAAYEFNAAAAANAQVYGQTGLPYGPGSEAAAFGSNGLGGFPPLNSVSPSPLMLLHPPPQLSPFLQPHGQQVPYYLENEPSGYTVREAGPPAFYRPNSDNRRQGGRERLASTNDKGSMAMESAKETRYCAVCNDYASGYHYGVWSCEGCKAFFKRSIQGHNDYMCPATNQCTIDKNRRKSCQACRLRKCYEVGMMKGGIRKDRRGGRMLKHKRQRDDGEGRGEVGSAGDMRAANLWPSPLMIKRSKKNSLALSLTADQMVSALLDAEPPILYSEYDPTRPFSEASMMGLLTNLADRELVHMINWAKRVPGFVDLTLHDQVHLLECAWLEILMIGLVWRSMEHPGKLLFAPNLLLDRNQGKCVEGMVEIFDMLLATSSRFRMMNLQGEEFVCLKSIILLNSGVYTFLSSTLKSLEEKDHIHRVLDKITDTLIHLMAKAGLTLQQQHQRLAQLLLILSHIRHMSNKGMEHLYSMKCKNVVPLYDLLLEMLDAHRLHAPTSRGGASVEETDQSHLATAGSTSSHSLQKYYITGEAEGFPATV

Key:
[1] = target: T1, amphioxus ER (amphiER) (Branchiostoma floridae) (UniProt B3V8B7); test: competition with a labelled probe; conditions: 100-fold excess vs labeled ERE; EMSA as previously described (ref 93); pH and temperature not given; in vitro translated proteins in reticulocyte lysate; protein translated in vitro; residues 1-705; label: none (unlabeled competitor)
T1 sequence (looked up): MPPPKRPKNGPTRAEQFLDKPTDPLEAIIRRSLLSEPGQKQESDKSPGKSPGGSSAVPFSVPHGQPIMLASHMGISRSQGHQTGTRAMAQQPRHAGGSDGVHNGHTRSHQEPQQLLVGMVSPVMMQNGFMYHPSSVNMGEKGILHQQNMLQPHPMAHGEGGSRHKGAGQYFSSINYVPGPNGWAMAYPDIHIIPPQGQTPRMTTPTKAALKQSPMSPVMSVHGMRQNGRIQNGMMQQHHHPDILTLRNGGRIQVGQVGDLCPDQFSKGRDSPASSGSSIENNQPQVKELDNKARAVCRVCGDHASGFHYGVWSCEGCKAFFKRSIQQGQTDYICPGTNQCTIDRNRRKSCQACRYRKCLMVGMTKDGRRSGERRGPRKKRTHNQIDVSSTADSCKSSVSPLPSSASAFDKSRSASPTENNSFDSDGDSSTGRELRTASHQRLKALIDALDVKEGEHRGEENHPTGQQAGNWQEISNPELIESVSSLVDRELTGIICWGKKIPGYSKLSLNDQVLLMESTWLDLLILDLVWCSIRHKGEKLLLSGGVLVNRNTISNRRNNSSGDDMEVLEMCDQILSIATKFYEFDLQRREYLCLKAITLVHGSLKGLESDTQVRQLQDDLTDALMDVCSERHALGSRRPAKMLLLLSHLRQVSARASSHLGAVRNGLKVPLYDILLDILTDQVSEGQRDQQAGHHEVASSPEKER

[2] = tested on: lamprey ER (lampER) (Petromyzon marinus); test: competition with a labelled probe; conditions: 100-fold excess vs labeled ERE; EMSA as previously described (ref 93); pH and temperature not given; in vitro translated proteins in reticulocyte lysate; protein translated in vitro; label: none (unlabeled competitor)
[3] = target: human ERβ (Homo sapiens) (UniProt Q92731); test: EMSA; conditions: EMSA as previously described (ref 93); pH and temperature not given; in vitro translated proteins in reticulocyte lysate; protein translated in vitro; label: 32P
[4] = tested on: lamprey ER (lampER) (Petromyzon marinus); test: EMSA; conditions: EMSA as previously described (ref 93); pH and temperature not given; in vitro translated proteins in reticulocyte lysate; protein translated in vitro; label: 32P
[5] = target: human ERα (Homo sapiens) (UniProt P03372); test: EMSA; conditions: EMSA as previously described (ref 93); pH and temperature not given; in vitro translated proteins in reticulocyte lysate; protein translated in vitro; label: 32P

CTAGTCCTAGGTCTAGAGAATTCA (double strand) [non-related probe (NS competitor)]
binding result [1]: no binding | binding result [2]: no binding

CGGGCCGAGGTCACAGTGACCTCGGCCCGT (double strand) [consensus ERE]
binding result [3]: binds | binding result [4]: binds | binding result [5]: binds

For at least one entry, the source does not settle the construct or the ends of the probe. For some assays here: A negative result means that nothing was seen under these conditions. For some assays here: Where a protein sequence is shown, tags need not be part of it. For some assays here: At least one verdict rests on a figure or table, not on a statement of the authors.
